No constants are given. Whether binding was seen depends on the method and setting. In cells and extracts the contact can be indirect. Some binding calls cover weakened binding; strength is not graded here. For some assays here: Sequences can lack the tags named with a protein.
Key:
[1] = target: T1, CAPRIN1, endogenous in HEK cells (human (endogenous in HEK293)) (UniProt Q14444); test: co-IP
T1 sequence: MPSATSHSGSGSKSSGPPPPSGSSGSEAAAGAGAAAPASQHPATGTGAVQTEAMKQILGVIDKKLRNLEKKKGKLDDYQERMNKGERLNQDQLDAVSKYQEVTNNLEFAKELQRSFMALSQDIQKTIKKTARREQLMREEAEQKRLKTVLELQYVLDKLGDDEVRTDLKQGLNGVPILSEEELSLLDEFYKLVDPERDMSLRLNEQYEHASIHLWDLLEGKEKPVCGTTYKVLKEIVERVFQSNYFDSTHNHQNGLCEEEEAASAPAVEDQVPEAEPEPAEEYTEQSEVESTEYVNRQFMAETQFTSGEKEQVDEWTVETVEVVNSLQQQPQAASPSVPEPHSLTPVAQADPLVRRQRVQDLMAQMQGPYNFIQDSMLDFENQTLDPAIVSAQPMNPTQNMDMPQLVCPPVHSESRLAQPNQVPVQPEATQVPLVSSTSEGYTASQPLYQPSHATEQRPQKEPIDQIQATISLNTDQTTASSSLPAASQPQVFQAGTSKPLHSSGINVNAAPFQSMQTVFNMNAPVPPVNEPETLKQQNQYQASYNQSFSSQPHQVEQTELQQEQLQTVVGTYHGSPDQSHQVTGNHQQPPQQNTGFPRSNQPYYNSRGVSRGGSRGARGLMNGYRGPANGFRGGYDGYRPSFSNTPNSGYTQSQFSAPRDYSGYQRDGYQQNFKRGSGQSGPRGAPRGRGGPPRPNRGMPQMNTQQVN

[2] = target: T2, Flag-tagged CAPRIN1 (CAPRIN1-Flag/Myc) (UniProt Q14444); test: co-IP
T2 sequence: T1 sequence

binding [1] | binding [2] | Substance
binds |  | APP695 wild type, stably expressed in HEK293 cells (HEK-APP695^WT) (from UniProt P05067-4 18-695)
 | binds | APP695-HiBiT (wild type APP695 tagged with the small HiBiT tag) (from UniProt P05067-4 18-695)

Source: publication doi:10.1101/2023.12.29.573648
